This note sets out measurements from article PMC5992204.

In the data set the target is T1, Zfp90 (mouse) (UniProt Q61967).
T1 sequence (looked up, limits assumed): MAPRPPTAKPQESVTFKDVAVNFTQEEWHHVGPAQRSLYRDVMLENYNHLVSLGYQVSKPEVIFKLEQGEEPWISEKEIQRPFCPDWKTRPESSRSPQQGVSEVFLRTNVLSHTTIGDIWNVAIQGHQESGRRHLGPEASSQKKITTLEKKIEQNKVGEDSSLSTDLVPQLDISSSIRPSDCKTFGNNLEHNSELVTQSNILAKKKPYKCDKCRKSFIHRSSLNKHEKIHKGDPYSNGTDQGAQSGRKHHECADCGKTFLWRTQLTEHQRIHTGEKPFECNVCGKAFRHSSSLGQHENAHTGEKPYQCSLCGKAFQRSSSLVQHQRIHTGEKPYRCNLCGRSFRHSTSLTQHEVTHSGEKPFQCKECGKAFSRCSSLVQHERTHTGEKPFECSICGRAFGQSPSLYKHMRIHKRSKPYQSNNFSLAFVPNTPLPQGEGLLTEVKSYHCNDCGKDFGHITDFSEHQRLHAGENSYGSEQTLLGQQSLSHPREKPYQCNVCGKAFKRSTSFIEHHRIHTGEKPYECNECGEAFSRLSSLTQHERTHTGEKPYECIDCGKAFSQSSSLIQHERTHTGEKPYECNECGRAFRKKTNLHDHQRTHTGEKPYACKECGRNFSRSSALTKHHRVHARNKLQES
Description: EMSA. Particulars: Light Shift Chemiluminescent EMSA kit (named RNA EMSA kit), 20 min at RT; 4% polyacrylamide gel in 0.5x TBE; binding buffer, salt and pH not stated; recombinant protein; label: biotin.

For at least one entry, the source does not settle the construct or the ends of the probe. Tags and fusion partners may be left off the protein sequences shown.

As for “TCTTCTTCCTGCCGACAAGCGAGGGGGTGTGGATCCCGGGAGCTTCCCAGCCCCTCTCT (double strand) [Hoxa9 promoter EMSA probe]”, the binding result is reported as “binds”.
